Measured values published in patent publication US6472227B1, “Barbiturate assay, tracers, immunogens, antibodies and kit” (Abbott Laboratories, priority 1986, dated 2002).

Experiments:
[1] = test system: antibodies raised against an immunogen having the structure shown in FIG. 29; experiment: Fluorescence polarization immunoassay cross-reactivity in drug-free normal human urine, tracer of FIG. 30; format: binding, sheep; conditions: Conc. Added 100 (ng/mL); tracer FIG. 30
Description: The antibodies of the present invention are prepared by eliciting a response in sheep to the immunogens described supra. The immunogen is administered to animals or to in vitro cultures of immunocompetent cells by a series of innoculations, in a manner well known to those skilled in the art. It should be understood that although sheep were the preferred immune host to barbiturate immunogens in the experiments detailed herein, any in vivo or in vitro host capable of producing antibodies to the structures herein outlined may be employed.
For the most preferred assay of the present invention, all percentages expressed herein are weight/volume unless otherwise indicated. The tracer formulation presently preferred is 150 nanomolar tracer in: 0.1 molar phosphate buffer at pH 6.2; 5% sodium 5-sulfosalicylate; 0.1% sodium azide; and 0.01% bovine gamma-globulin. […]
If a manual assay is being performed, then the sample is mixed with the pretreatment solution in dilution buffer and a background reading is taken. […] After incubation, a fluorescence polarization reading is taken.
The net fluorescence polarization value of each calibrator, control or sample is determined and is printed on the output tape of an instrument such as the Abbott TDx® Analyzer. […] The concentration of each control or sample is read off the stored calibration curve and printed on the output tape. […]

[2] = test system: antibodies raised against an immunogen having the structure shown in FIG. 29; experiment: Fluorescence polarization immunoassay cross-reactivity, tracer of FIG. 31; format: binding, sheep; conditions: Conc. Added 100 (ng/mL); tracer FIG. 31
Description: The antibodies of the present invention are prepared by eliciting a response in sheep to the immunogens described supra. The immunogen is administered to animals or to in vitro cultures of immunocompetent cells by a series of innoculations, in a manner well known to those skilled in the art.

COc1ccc2cc([C@H](C)C(=O)O)ccc2c1 [Naproxen] was tested. Which “% CR” value [1] did it give?
Its value is 0.02%.

And the “Conc. Found” value [1]?
Its value is 20 ng/mL.

What about the “% CR” value [2] of the same molecule?
The value was 0.02%.

What about the “Conc. Found” value [2] of the same molecule?
Its value is 20 ng/mL.
